Chains of the proteins cited; added tags and fusions are not shown. Lines headed by an entry give the natural chain unless they say otherwise; changes in a name come on top.
UniProt P08684: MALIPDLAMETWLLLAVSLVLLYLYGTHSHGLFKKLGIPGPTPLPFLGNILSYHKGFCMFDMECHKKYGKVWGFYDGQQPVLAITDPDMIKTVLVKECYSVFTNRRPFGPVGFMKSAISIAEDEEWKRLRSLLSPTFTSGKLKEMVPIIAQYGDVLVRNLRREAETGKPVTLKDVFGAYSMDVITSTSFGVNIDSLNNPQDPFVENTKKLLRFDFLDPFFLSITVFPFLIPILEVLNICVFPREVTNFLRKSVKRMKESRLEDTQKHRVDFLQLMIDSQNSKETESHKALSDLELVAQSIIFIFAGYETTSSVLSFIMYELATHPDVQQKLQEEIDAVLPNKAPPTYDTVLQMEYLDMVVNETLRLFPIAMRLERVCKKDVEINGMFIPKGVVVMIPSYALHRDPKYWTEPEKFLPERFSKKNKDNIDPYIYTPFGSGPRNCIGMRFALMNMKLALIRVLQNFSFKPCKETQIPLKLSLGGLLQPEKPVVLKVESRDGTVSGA
UniProt P20815: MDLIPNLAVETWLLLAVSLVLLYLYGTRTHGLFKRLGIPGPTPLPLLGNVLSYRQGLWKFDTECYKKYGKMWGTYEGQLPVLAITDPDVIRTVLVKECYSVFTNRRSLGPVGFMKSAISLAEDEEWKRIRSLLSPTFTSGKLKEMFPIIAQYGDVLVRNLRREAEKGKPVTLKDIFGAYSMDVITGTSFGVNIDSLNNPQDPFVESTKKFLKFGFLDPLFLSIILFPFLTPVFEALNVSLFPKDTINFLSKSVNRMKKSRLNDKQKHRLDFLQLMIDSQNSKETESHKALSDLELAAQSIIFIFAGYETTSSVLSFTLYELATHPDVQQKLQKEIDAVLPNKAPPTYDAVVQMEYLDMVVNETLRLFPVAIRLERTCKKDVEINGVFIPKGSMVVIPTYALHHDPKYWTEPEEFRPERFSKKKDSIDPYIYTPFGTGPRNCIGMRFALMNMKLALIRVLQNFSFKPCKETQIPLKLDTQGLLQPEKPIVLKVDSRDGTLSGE
UniProt Q12809: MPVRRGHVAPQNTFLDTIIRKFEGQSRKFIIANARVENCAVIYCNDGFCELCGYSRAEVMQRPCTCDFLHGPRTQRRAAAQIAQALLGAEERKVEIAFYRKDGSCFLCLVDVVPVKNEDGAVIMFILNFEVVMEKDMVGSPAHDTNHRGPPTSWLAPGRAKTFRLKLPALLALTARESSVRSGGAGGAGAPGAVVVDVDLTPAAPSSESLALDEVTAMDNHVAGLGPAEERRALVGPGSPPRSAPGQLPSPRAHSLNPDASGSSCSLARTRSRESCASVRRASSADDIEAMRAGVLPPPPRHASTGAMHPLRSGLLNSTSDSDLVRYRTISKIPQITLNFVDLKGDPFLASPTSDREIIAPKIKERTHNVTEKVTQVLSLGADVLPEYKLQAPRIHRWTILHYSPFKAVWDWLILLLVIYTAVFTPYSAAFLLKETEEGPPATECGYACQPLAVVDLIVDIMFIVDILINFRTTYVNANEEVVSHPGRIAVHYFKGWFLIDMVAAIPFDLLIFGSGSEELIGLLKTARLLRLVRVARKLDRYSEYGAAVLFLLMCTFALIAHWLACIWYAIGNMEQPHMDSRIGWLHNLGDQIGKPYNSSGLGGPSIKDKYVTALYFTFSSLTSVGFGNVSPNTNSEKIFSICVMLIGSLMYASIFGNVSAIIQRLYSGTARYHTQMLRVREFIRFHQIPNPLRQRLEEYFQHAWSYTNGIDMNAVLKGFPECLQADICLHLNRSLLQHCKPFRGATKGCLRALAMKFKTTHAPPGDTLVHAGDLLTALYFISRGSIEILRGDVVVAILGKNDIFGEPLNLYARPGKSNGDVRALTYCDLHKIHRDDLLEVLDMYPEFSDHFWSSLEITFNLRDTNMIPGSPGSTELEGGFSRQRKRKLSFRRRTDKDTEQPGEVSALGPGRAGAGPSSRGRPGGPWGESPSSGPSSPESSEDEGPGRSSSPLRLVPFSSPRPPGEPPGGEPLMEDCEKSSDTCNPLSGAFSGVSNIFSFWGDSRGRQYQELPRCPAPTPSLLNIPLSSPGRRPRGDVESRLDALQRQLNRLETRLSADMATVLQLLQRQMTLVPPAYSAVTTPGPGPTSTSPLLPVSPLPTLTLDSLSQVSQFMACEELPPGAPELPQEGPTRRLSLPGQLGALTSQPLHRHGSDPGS

In ChEMBL document CHEMBL6134832, “Expanding the utilization of binding pockets proves to be effective for noncovalent small molecule inhibitors against SARS-CoV-2 Mpro” (Eur J Med Chem, 2025):

Key:
CYP3A4/CYP3A5 = CYP3A4/CYP3A5 (Homo sapiens, UniProt P08684+P20815); assay: Inhibition of CYP3A4/CYP3A5 (unknown origin)
[1] = biological target: Voltage-gated inwardly rectifying potassium channel KCNH2 (Homo sapiens, UniProt Q12809)

SMILES | IC50 (CYP3A4/CYP3A5) | IC50 [1]
Cn1cc2cc(/N=c3\[nH]c(=O)n(-c4cncc(O[C@H]5CCOC5)c4)c(=O)n3Cc3cc(F)c(F)cc3F)c(Cl)cc2n1 | > 50 µM | > 30 µM
Cn1cc2cc(/N=c3\[nH]c(=O)n(-c4cccnc4)c(=O)n3Cc3cc(F)c(F)cc3F)c(Cl)cc2n1 | 35.6 µM | > 30 µM
